In the supplement of paper PMC5949888:
Most values lie at the floor of the assay. Slopes are relative: functional sequences can read slightly below zero.

Test system: Saccharomyces cerevisiae PS128 hsf1 delta, HSF1(1-493) fusion
Test: growth estimate (transactivation domain function in HSF1 fusion, heat-shock survival) (a.u. (slope of normalised read count over time)); higher = stronger growth at 37°C, i.e. more transactivation activity
Details: library: random library

Substance | growth estimate
RLLRWDDGFTKRIHL | < -0.25
RDFLPKSS | < -0.25
GKGTTVFRTRLGKMVEWPVS | < -0.25
SAPPPETGSGYIRSNMRCLR | < -0.25
GLMIMRSGRGTKRLERKSSC | < -0.25
DNSPMNLRVRE | < -0.25
TASFCRAWITDRAGVIPVSE | < -0.25
PIGGRGAV | < -0.25
RLVCVYSGACWRTVSH | < -0.25
QSYTD | < -0.25
GSQFPYRQTGPYLVGEVAYC | < -0.25
NMVTGT | < -0.25
RPSRFVKTA | < -0.25
TLKKSG | < -0.25
LKYSYEGICPPGYGLSQIGR | < -0.25
CPREYLSNYWSECMRVGE | < -0.25
AAHASEILAARVGEYNGEAA | < -0.25
GLVWNDLCKMYIVRAEIDRK | < -0.25
RSDTHMGSSGIRIA | < -0.25
FPVARIMPITHPCSILAMRV | < -0.25
PKQARPREHGR | < -0.25
GSDMEADGSLI | < -0.25
CFIYGRLIQDGKVLFFLRYY | < -0.25

A section taken from the entries so far:
Substance | growth estimate
RPSRFVKTA | < -0.25
TLKKSG | < -0.25
LKYSYEGICPPGYGLSQIGR | < -0.25
CPREYLSNYWSECMRVGE | < -0.25
AAHASEILAARVGEYNGEAA | < -0.25
GLVWNDLCKMYIVRAEIDRK | < -0.25

As entered above:
Value of LKYSYEGICPPGYGLSQIGR under growth estimate: < -0.25
Value of TASFCRAWITDRAGVIPVSE under growth estimate: < -0.25

(continued)

Substance | growth estimate
IILRLPTHRYC | < -0.25
CRKEG | < -0.25
LSGKSLEAIHDPTGNVVWEL | < -0.25
GEIGYL | -0.246
LILWSGGKPLKGFRDKRTRS | < -0.25
CTLRW | < -0.25
PRYWNMGVCVRIRIAGVSKG | < -0.25
AGSMGCIYRSSLSCCHAMQR | < -0.25
ISSRVPSGANSRQ | < -0.25
IRVPLSIVALVHLRTLFLLN | < -0.25
AVCALRYIELGYTRHTDVRL | < -0.25
GFKGLVRVLQWETGLDPRRK | < -0.25
LKGGSEDIRR | < -0.25
LFRGPRALSRVKGNVYRAVV | < -0.25
VSAVRECSLMI | < -0.25
RRI | < -0.25
KPIFGVPPPARRAYVRGYRL | < -0.25
SVVRVTESESRVTQE | < -0.25
PACTPRTAVGTFASRTTRTH | < -0.25
YGLGTGVLRLGDHATPSSRE | < -0.25
GELEFWRLSDAISRHVHSGS | < -0.25
ASSKRGQSQSGLLLQRRPFT | < -0.25
IADRKQDWDQGVGLESRRGP | < -0.25

Substance | growth estimate
RLHVKLCYTPSRYTQD | -0.246
LGEGRPTVGATRVLPHI | < -0.25
LSTARSGLPTKSPVLGKPF | < -0.25
NLTYSPDCLTCPM | < -0.25
LLLREAGLVISSLVGPGLFR | < -0.25
SEHFLQVVSPSPSR | < -0.25
MTVL | < -0.25
HLFIIAYLYLALERRPHSLT | < -0.25
LVDYLLDMAFKRHSNLWGAS | < -0.25
FVLESG | < -0.25
QTLPRTGGSIIRVLNFSAAG | < -0.25
TVSDRSGCSWRGRGCGMVLS | < -0.25
GGAGQSRPGRVGV | < -0.25
QMALTWRFSY | < -0.25
NRQLIVDLSPIVSIEGVALS | < -0.25
TQLRRDKR | < -0.25
GRAICRSGQLKFCRWGKSLS | < -0.25
PRVIDLQE | < -0.25
MLAVKALAW | < -0.25
GPTDQRVTCRESSSSGYLAR | < -0.25
PLSYFGGSAGANKGSTAPHV | < -0.25
GISLVDNWIGAYGTPIRTIM | < -0.25
FRTSYSG | < -0.25

Substance | growth estimate
EKR | < -0.25
PKTSEEEIGSLFTWLFSAEH | 0.289
DRC | < -0.25
SMRAVVTT | < -0.25
IRRSNVCWLGASAAIAPI | < -0.25
LLARSR | < -0.25
TRYI | < -0.25
CLALALPCHGRTLHCYNVSE | < -0.25
NFRRAGDRNTFTRHARALID | < -0.25
VKKNLRSTS | < -0.25
ESSEVPVTADIPTARVAHRE | < -0.25
LLVSYV | < -0.25
VGSM | < -0.25
SVLGGPLG | < -0.25
STIQLSVPRDGYFNDCALRA | < -0.25
CKRWREFVGHRTNRI | < -0.25
GLSDKKKRSQASKVWGTADS | < -0.25
SVGNGLTCTR | < -0.25
GNPSAVDKRGFEAPLFVRIG | < -0.25
RLCKMGPETLPYDGTYAQHV | < -0.25
LIPASRSKAVGRAREPGHMC | < -0.25
FST | < -0.25
HSRSARRLARPGTRNCRPCP | < -0.25

Substance | growth estimate
SANGEQDKLQCHLGSVNPPD | < -0.25
NGFPTNSAVAYVIIGYPCPD | < -0.25
QSRLPIHHAQLDYSRVAFPL | < -0.25
DVEGGFVEIDAVGLIEIRVC | < -0.25
VDTSDPDQF | < -0.25
CGQTIRTIQPEDCVRASIKG | < -0.25
EWAVPLSPLGL | < -0.25
PRAVGNHSRLKGKTRTSEVP | < -0.25
RVLGRVITCSDSIGSHPGAS | < -0.25
KVSFLEKGFVRSRTGGI | < -0.25
YELLKCVKRYQGSREMGALS | < -0.25
VEGIGLCYIPVLNSHTVSPG | < -0.25
VRRVGALEKEST | < -0.25
YTLAGVWPNSFAK | < -0.25
LIEVECLVICSSTCWLGRYC | < -0.25
PEDVNTQDTSRH | -0.0269
SRCLLTSVLYRGETLDHFSG | < -0.25
RECSSTNYTLEATSKSFLPY | < -0.25
PRDSQISAPIFEAYLLNTST | < -0.25
LGKWTSHQIY | < -0.25
ENCKDDGK | < -0.25
VVLYKRTFWSPPLAGLNSGT | < -0.25
LIREEVIYACAPPGTLVSAN | < -0.25

Substance | growth estimate
FGQWRGSGGLRALSPATST | < -0.25
QGLKPDVNDLGKWSGEVRQV | < -0.25
CTPAACHICAS | -0.243
MIMATK | < -0.25
DGWAGARTTPLLLSLAIVEP | < -0.25
PYRSVIGDAKGAYLKSVDCT | < -0.25
YSIVVHRNCRANAGCSS | < -0.25
SIL | < -0.25
HGDSRVLCS | < -0.25
TQMLSTGNTWFFAGQNSIAV | < -0.25
SVLLTMG | < -0.25
IQQFPRGIFVGRVKMAARQL | < -0.25
LPGTSTGHRAV | -0.245
KVYILRLLIYDHAAEGGRST | < -0.25
VELR | < -0.25
VTREMPEKCELVLLYEAIRS | < -0.25
LGKRVIGMCELFARVSTCGH | -0.246
SSSCK | < -0.25
IAIGKRRRGGYVDRICPRIP | < -0.25
DPHLTQWLETLNSKLKVICK | < -0.25
DCRAVLVEN | < -0.25
LNQGSSILVIRRVDVYHAHV | < -0.25
IPYGAFIF | < -0.25

Substance | growth estimate
SVPVKVELTLRSNHDTGGIA | < -0.25
DMPDFDCVVPTDE | < -0.25
ARGRLHGTRGDEKEFDGRKQ | < -0.25
WIAPPKDEGFA | < -0.25
YDPRLVSYVQPRV | < -0.25
VGGLETCASLPTSGTHYVLR | -0.0944
STQIRSESLSFVCLDIGLVV | < -0.25
MSNMSSSLFSQ | < -0.25
HRNYGEACMQKQWLTVAACR | < -0.25
EDRRTRSSYVVTVAIVPNPY | < -0.25
EDPRPVHGSAFKYRMHGLGP | < -0.25
LVLFEGSALSGECLRLLIRG | < -0.25
PPGKWRTGVVLSIETRRRRS | < -0.25
SGLPRVAALLKITGAASVSI | < -0.25
YRPDQYDMIRFVSERVRQ | < -0.25
VNRANKCDLCGG | < -0.25
LNIMTWVRKTIWIPVVPRPW | < -0.25
GVDSN | < -0.25
